For experiment [1], the target named is T1, OsRPN10 fused to a YFP fragment (BiFC) (O. sativa spp. japonica) (UniProt O82143).
T1 sequence: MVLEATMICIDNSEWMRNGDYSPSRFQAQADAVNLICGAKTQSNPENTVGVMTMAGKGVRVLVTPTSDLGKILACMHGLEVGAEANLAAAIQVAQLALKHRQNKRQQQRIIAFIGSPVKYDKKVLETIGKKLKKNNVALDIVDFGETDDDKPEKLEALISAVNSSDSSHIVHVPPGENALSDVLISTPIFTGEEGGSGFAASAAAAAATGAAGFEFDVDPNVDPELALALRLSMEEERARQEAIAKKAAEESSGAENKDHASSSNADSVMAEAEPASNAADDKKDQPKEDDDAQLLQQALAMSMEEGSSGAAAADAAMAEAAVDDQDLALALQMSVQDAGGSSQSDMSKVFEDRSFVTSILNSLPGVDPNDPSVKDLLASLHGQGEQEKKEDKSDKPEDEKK
Description: split reporter; BiFC: N- and C-terminal fragments of YFP fused to the two proteins, co-expressed in N. benthamiana leaves by agroinfiltration; confocal microscopy.

A further experiment addresses T2, OsRPN10-GFP (O. sativa) (UniProt O82143).
T2 sequence: T1 sequence
Description: co-IP; fusion proteins co-expressed 48 h in N. benthamiana leaves by agroinfiltration; total proteins in GTEN buffer (10% glycerol, 25 mM Tris-HCl pH 7.5, 1 mM EDTA, 150 mM NaCl) with 10 mM DTT, 0.5% nonidet P40; GFP-Trap M beads, 2 h; blots with anti-GFP and anti-Myc.

Drawing on article PMC7485977, this text covers binding for two substances.

Results are given in words; binding and its absence hold for the method and conditions named. Binding seen in cells or lysates may run through a third protein. Binding calls can cover weak binding; strength is not graded here. Sequences can lack the tags named with a protein.

Consider “OsUBL5.1 fused to a YFP fragment (BiFC) (O. sativa spp. japonica)”, for which the binding result in experiment [1] is reported as “binds”.
For OsUBL5.1-Myc (O. sativa), in the experiment with OsRPN10-GFP (O. sativa), the binding result is given as “binds”.
